# Measurements reported in PubChem BioAssay AID1671195 (Yale University, 2021).
# Screen: 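Regulators of LDL receptor activity judged by labelled LDL uptake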 (primary screen)
# Cells: human Huh7 hepatoma cells
# Reagents: siRNA pool against human genes, 18 nM
# Timing: about 2 to 2.5 days of knockdown, then 8 h LDL uptake
# Conditions: DiI-labelled LDL at 30 µg/ml for 8 h, in lipoprotein-deficient serum medium
# Measured: 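Per-cell DiI-LDL intensity by automated imaging; well means scaled to the plate median and given as a robust z-score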
# Direction: robust z-score: higher = more LDL uptake after knockdown
# Hit rule: 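a gene counts as active if at least two replicate z-scores exceed ±2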
# In all, the deposit lists about 22,000 reagents; shown is a random part of them. About 1,510 of all reagents (6.9%) count as active. 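Active includes knockdowns raising or lowering LDL uptake; positive z-scores mean more uptake, negative mean less.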
gene knocked down,"robust z-score, replicate 1","robust z-score, replicate 2","robust z-score, replicate 3",Call
EML3 (EMAP like 3),-0.285,0.105,-0.394,inactive
KIF4B (kinesin family member 4B),0.822,0.27,0.327,inactive
RCE1 (Ras converting CAAX endopeptidase 1),0.957,0.415,1.12,inactive
OR10A7 (olfactory receptor family 10 subfamily A member 7),-0.516,-0.844,-1.52,inactive
TFAP2C (transcription factor AP-2 gamma),-0.731,-1.01,-0.692,inactive
ADRA1B (adrenoceptor alpha 1B),0.66,0.248,0.195,inactive
LOC400301 (retired record),0.287,2.09,1.76,inactive
CFAP119 (cilia and flagella associated protein 119),-0.634,0.0559,0.0442,inactive
ITPRIPL2 (ITPRIP like 2),0.231,-1.04,-0.775,inactive
CATSPERG (catsper channel auxiliary subunit gamma),-1.49,-1.88,-0.795,inactive
TMEM222 (transmembrane protein 222),-0.701,-1.19,-0.505,inactive
MC4R (melanocortin 4 receptor),-0.952,-0.995,-1.16,inactive
ITGA1 (integrin subunit alpha 1),-0.321,-0.453,-0.738,inactive
PIEZO1-AS1 (PIEZO1 antisense RNA 1),-0.85,-0.699,-0.645,inactive
DUS2 (dihydrouridine synthase 2),-0.444,-0.541,-0.537,inactive
ELP3 (elongator acetyltransferase complex subunit 3),-1.63,0.86,0.912,inactive
NAAA (N-acylethanolamine acid amidase),1.08,1.02,1.12,inactive
UGT2B4 (UDP glucuronosyltransferase family 2 member B4),0.594,0.642,0.642,inactive
MIS18A (MIS18 kinetochore protein A),-1.79,-1.38,-1.07,inactive
SEC14L4 (SEC14 like lipid binding 4),-0.356,0.152,0.0157,inactive
STAT5B (signal transducer and activator of transcription 5B),0.0604,-0.0477,-0.306,inactive
"PRNT (prion locus lncRNA, testis expressed)",-0.447,-0.973,0.459,inactive
CTHRC1 (collagen triple helix repeat containing 1),-1.16,-0.664,-1,inactive
PAM16 (presequence translocase associated motor 16),-0.0831,-0.31,-2.53,inactive
TLX3 (T cell leukemia homeobox 3),0.515,0.288,0.366,inactive
LOC441526 (retired record),-0.826,-0.952,-0.824,inactive
RIGI (RNA sensor RIG-I),-0.828,-0.917,-0.825,inactive
NMRAL1 (NmrA like redox sensor 1),-1.2,-0.655,-0.49,inactive
SMIM9 (small integral membrane protein 9),-0.9,-0.679,-0.862,inactive
CINP (cyclin dependent kinase 2 interacting protein),-2.43,-0.932,-1.91,inactive
ZNF275 (zinc finger protein 275),0.201,1.06,0.495,inactive
SRRM4 (serine/arginine repetitive matrix 4),0.945,0.749,0.533,inactive
HMGA1 (high mobility group AT-hook 1),-1.11,-0.425,-1.16,inactive
STAG3 (STAG3 cohesin complex component),0.969,-0.642,1.87,inactive
LOC388915 (retired record),-0.29,-0.287,-0.49,inactive
MTCL3 (MTCL family member 3),0.999,1.98,1.51,inactive
ARHGEF7 (Rho guanine nucleotide exchange factor 7),3.02,3.36,2.41,active
GIGYF2 (GRB10 interacting GYF protein 2),-0.851,-0.0987,0.337,inactive
PWWP3B (PWWP domain containing 3B),0.428,1.81,2.21,inactive
SP110 (SP110 nuclear body protein),-0.864,-1.15,-0.604,inactive
THAP5P1 (THAP domain containing 5 pseudogene 1),1.1,1.12,1.2,inactive
METTL17 (methyltransferase like 17),0.0493,0.78,-0.0169,inactive
HACD4 (3-hydroxyacyl-CoA dehydratase 4),-0.857,-0.751,-0.386,inactive
EMB (embigin),-0.291,-0.194,-0.471,inactive
PYGO2 (pygopus family PHD finger 2),1.52,1.39,1.88,inactive
PARD3 (par-3 family cell polarity regulator),0.301,0.387,0.396,inactive
HORMAD1 (HORMA domain containing 1),1.46,1.95,2.22,inactive
ODAD4 (outer dynein arm docking complex subunit 4),2.34,0.59,1.13,inactive
NDUFA8 (NADH:ubiquinone oxidoreductase subunit A8),1.18,-0.629,-1.03,inactive
FADD (Fas associated via death domain),0.0723,0.491,-0.481,inactive
PIGB (phosphatidylinositol glycan anchor biosynthesis class B),2.6,1.4,1.88,inactive
GMPPA (GDP-mannose pyrophosphorylase A),-1.09,0.798,0.442,inactive
"FSCN2 (fascin actin-bundling protein 2, retinal)",-0.0949,-2.03,0.0631,inactive
C1QTNF3 (C1q and TNF related 3),0.83,-0.225,0.134,inactive
PMFBP1 (polyamine modulated factor 1 binding protein 1),2.37,2.02,2.58,active
ETFA (electron transfer flavoprotein subunit alpha),-0.151,-0.209,-0.247,inactive
ARSB (arylsulfatase B),-1.58,-2.14,-1.45,inactive
RBFOX2 (RNA binding fox-1 homolog 2),-1.47,-0.859,-1.57,inactive
CTCF (CCCTC-binding factor),-0.523,-0.168,0.349,inactive
PRIM2 (DNA primase subunit 2),-0.558,-0.582,-0.362,inactive
PARG (poly(ADP-ribose) glycohydrolase),-1.3,-0.696,-1.12,inactive
TINAGL1 (tubulointerstitial nephritis antigen like 1),2.92,2.55,1.96,active
KCNJ9 (potassium inwardly rectifying channel subfamily J member 9),-0.509,-1.37,-0.206,inactive
LOC392531 (retired record),-0.758,0.197,0.498,inactive
TBC1D3F (TBC1 domain family member 3F),0.441,0.52,0.0668,inactive
LINC00310 (long independently transcribed non-coding RNA 310),0.439,-0.000266,0.446,inactive
ZNF33A (zinc finger protein 33A),0.0919,0.201,0.118,inactive
TRA2B (transformer 2 beta homolog),0.536,0.576,0.718,inactive

Reagents listed so far with an active call (3):
gene knocked down,"robust z-score, replicate 1","robust z-score, replicate 2","robust z-score, replicate 3",Call
ARHGEF7 (Rho guanine nucleotide exchange factor 7),3.02,3.36,2.41,active
PMFBP1 (polyamine modulated factor 1 binding protein 1),2.37,2.02,2.58,active
TINAGL1 (tubulointerstitial nephritis antigen like 1),2.92,2.55,1.96,active
